Data taken from article PMC5570293.
No constants are given. Whether binding was seen depends on the method and setting. Binding seen in cells or lysates may run through a third protein. For part of these data: Binding calls can cover weak binding; strength is not graded here. Sequences can lack the tags named with a protein.

What was measured:
Assay in all cases: co-IP; S2 cells cotransfected with UAS plasmids and actC5-GAL4, 72 h expression; immunoprecipitation with rabbit anti-GFP antibodies; Western blots with anti-GFP, anti-FLAG or anti-HA
[1] = target: T1, GFP-Mfap1^230-478 (Drosophila) (UniProt Q9W062)
T1 sequence: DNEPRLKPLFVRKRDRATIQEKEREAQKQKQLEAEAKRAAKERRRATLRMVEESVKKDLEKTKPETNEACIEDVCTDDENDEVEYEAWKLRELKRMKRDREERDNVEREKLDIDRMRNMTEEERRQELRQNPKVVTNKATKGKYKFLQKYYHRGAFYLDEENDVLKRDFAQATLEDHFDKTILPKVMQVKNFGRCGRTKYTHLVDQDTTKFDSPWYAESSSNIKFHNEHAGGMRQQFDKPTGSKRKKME

[2] = target: T2, GFP-Mfap1^1-229 (Drosophila) (UniProt Q9W062)
T2 sequence: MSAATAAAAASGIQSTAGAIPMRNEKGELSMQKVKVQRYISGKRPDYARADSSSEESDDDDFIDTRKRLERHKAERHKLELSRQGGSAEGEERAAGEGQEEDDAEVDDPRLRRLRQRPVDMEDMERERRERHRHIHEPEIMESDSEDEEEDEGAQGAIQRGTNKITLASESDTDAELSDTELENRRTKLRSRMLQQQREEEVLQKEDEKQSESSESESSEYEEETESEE

[3] = target: T3, Mfap1-GFP (C-terminally GFP-tagged full length Mfap1, 1-478) (Drosophila) (UniProt Q9W062)
T3 sequence: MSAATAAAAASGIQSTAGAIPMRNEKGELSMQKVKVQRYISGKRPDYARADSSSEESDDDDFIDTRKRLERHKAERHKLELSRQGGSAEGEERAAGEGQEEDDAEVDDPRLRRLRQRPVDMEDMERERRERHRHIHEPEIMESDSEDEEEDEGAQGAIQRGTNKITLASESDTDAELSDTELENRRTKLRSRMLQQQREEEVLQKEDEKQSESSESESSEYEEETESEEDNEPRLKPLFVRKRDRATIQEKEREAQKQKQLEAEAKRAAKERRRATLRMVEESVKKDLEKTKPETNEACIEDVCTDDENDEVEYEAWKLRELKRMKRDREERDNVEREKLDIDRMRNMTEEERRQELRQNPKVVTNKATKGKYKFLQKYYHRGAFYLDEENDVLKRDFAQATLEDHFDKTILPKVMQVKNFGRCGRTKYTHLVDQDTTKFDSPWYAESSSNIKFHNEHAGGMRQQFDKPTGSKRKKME

In the case of “FLAG-tagged dominant-negative VCP QQ (ATPase-dead VCP carrying mutations E335Q, E575Q) (Drosophila)”, the binding [1] is reported as “no binding”, the binding [2] is reported as “binds” and the binding [3] is reported as “binds”.
